Measurements reported in patent US12139480B2, “5-thiazolecarboxamide kinase inhibitor and uses thereof” (iOmx Therapeutics AG, priority 2018, dated 2024).

Tested on: diverse set of 320 wild-type protein kinases
Experiment: single-point (1 uM) inhibition assay (ProQinase Kinase Profiler), whole panel
Type: biochemical
Settings: 1 uM compound; for number of kinases inhibited by greater than 50% that retain more than 50% activity with the other compound: B3 versus A8

| Compound | number of kinases inhibited by greater than 50% that retain more than 50% activity with the other compound | number of kinases inhibited to less than 1% residual activity (320 kinases) | number of kinases inhibited, threshold of <5% residual activity (320 kinases) |
| --- | --- | --- | --- |
| Cc1nc(Nc2ncc(C(=O)Nc3c(C)cccc3Cl)s2)cc(N2CCN(CCO)CC2)n1 [Compound A8, N-(2-chloro-6-methylphenyl)-2-((6-(4-(2-hydroxyethyl)piperazin-1-yl)-2-methylpyrimidin-4-yl)amino)thiazole-5-carboxamide, reference compound] | 9 | – | – |
| Cc1nc(Nc2ncc(C(=O)Nc3c(Cl)ccnc3C)s2)cc(N2CCN(CCO)CC2)n1 [Compound B3, N-(4-chloro-2-methylpyridin-3-yl)-2-((6-(4-(2-hydroxyethyl)piperazin-1-yl)-2-methylpyrimidin-4-yl)amino)thiazole-5-carboxamide] | one | 13 | 30 |
